## Microarray screen: hit calls

Targets (5′ to 3′):
SAM-II: SAM-II riboswitch RNA pseudoknot, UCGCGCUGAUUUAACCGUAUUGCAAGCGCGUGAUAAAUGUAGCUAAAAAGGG. About 21,000 compounds screened, about 200 hits.
PreQ1: PreQ1 riboswitch RNA pseudoknot, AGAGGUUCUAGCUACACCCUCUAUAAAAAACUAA. From B. subtilis. About 24,000 compounds screened, about 170 hits.
TPP: TPP riboswitch RNA three-way junction, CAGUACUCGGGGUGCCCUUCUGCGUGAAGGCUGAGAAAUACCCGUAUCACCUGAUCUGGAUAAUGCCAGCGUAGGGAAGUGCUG. About 24,000 compounds screened, about 160 hits.

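The test is a small-molecule microarray: each compound is printed twice on a reactive slide, and binding shows as fluorescence of the labelled oligonucleotide after washing. The data file lists only calls. An earlier report of the laboratory on the PreQ1, TPP and SAM-II riboswitches (doi:10.1038/s41467-019-09493-3) used 1 µM RNA for 2 h and required a mean Z-score above 3 (spot signal-to-noise against the whole library), a score well above that on a control array, and duplicate spots agreeing (coefficient of variation under 100); it then also set aside compounds that hit other targets, which this list keeps. The cut-offs behind this list may differ. These are primary screening calls, not affinities; a compound without a hit may have attached poorly or may still bind in solution.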
A compound is marked active if it was called a hit and inactive if it was screened but was not.
This is an unselected part of the compounds tested.
A target missing from an entry has no call listed here.

With CC1(C)CC(C)(c2ccccc2)c2cc(C(c3ccccc3)(c3ccccc3)c3ccccc3)ccc2N1 (centres unmarked) the screen gave SAM-II: inactive; PreQ1: inactive; TPP: inactive. With Cc1nn(CCO)c(C)c1-c1cc(C(C)(C)C)nc(N)c1C#N the screen gave SAM-II: inactive; PreQ1: inactive; TPP: inactive. Calls for NC(Sc1nc(=O)n(C2CCCC2)c2c1CCC2)c1cccc2ccccc12 (centres unmarked) are PreQ1: inactive; TPP: inactive. N[C@H]1CN(C(=O)CCc2cccc(Cl)c2)C[C@@H]1C1CC1 was scored SAM-II: inactive; PreQ1: inactive; TPP: inactive. With CCc1cnc(N)nc1NCCc1ccc(OC)cc1OC the screen gave SAM-II: inactive; PreQ1: inactive; TPP: inactive.

Calls for N#CC1=C(N)NC(=C2C(=O)C=CC=C2OCC2CC2)C=C1C1CCNCC1 are SAM-II: inactive; PreQ1: inactive; TPP: inactive. COc1cc(CN2CCN(c3ncccc3C#N)CC2CCO)cc(OC)c1 (centres unmarked) was scored SAM-II: inactive; PreQ1: inactive; TPP: inactive. For CCOC(=O)c1c(C)oc2ncnc(NC3CCN(C(=O)OCC)CC3)c12 the calls were SAM-II: inactive; PreQ1: inactive; TPP: inactive. With Cc1ccccc1NC(=O)c1c(N)sc2c1CCCCC2 the screen gave SAM-II: inactive; PreQ1: inactive; TPP: inactive. With CCN(CC)S(=O)(=O)c1ccc(-c2nc(C#N)c(NCCN(C)C)o2)cc1 the screen gave PreQ1: inactive; TPP: inactive.

COc1ccc(NC2CCCN(c3nc(C(F)(F)F)nc(C)c3C)C2)cc1 (centres unmarked) was scored SAM-II: inactive; PreQ1: inactive; TPP: inactive. With Cc1cccc2nc(-c3ccco3)c(Nc3ccc(F)cc3)n12 the screen gave SAM-II: inactive; PreQ1: inactive; TPP: inactive. Calls for CCCOc1ccc(C(=O)OCCN(CC)CC)cc1N are SAM-II: inactive; PreQ1: inactive; TPP: inactive. With CC(Sc1nc(=O)cc(N)n1-c1ccccc1)C(=O)Nc1ccccc1 (centres unmarked) the screen gave SAM-II: inactive; PreQ1: inactive; TPP: inactive. COc1ncc(-c2c(C#N)c(N)nc3c2CCCC3c2ccccc2)cn1 (centres unmarked) was scored SAM-II: inactive; PreQ1: inactive; TPP: inactive.

For CC(=O)c1ccc(-c2ccc(CO)cc2)nc1 the calls were SAM-II: inactive; PreQ1: inactive; TPP: inactive. With COc1ccc(Cc2ccc(NC(N)=O)cc2)cc1-c1cccc(Cl)c1 the screen gave SAM-II: inactive; PreQ1: inactive; TPP: inactive. With CN1CCN(C(=O)C2(CO)CC2)CC12CCC(=O)N(CC(=O)O)CC2 (centres unmarked) the screen gave SAM-II: inactive; PreQ1: inactive; TPP: inactive. With O=C1C2C(c3cccnc3)NC(c3cccnc3)C1C(c1cccnc1)NC2c1cccnc1 (centres unmarked) the screen gave SAM-II: inactive; PreQ1: inactive; TPP: inactive. Calls for CN(C)c1ccc(/N=N\c2cccc3ccoc23)cc1 are SAM-II: inactive; PreQ1: inactive; TPP: inactive.

For CC1(C)CC(NC(=O)c2ccccc2[N+](=O)[O-])CC(C)(C)N1 the calls were SAM-II: inactive; PreQ1: inactive; TPP: inactive. NCC1(CC(=O)O)CCCCC1 was scored SAM-II: inactive; PreQ1: inactive; TPP: inactive. Calls for COc1ccc2c3c([nH]c2c1)[C@H]1C[C@H]2[C@H](C[C@@H](O)[C@H](OC)[C@H]2C(=O)O)CN1CC3 are SAM-II: inactive; PreQ1: inactive; TPP: inactive. Calls for NC1=C(c2nc3ccccc3c(=O)[nH]2)C(=O)CN1c1ccc(Cl)cc1Cl are SAM-II: inactive; PreQ1: inactive; TPP: inactive. With Cc1cc(C)n(-c2cc(N)nc(Cl)n2)n1 the screen gave SAM-II: inactive; PreQ1: inactive; TPP: inactive.

Repeated from the top, 2 entries:

Compound	SAM-II	PreQ1	TPP
CC1(C)CC(C)(c2ccccc2)c2cc(C(c3ccccc3)(c3ccccc3)c3ccccc3)ccc2N1 (centres unmarked)	inactive	inactive	inactive
Cc1nn(CCO)c(C)c1-c1cc(C(C)(C)C)nc(N)c1C#N	inactive	inactive	inactive

Data from the ROBIN nucleic acid binder screens, doi:10.1002/anie.202211358.